Two substances from publication PMC7327804 (Data in Brief, 2020) can be followed below.

Sequences of proteins named here, by UniProt entry; tags and fusion partners are left off.
UniProt P49407: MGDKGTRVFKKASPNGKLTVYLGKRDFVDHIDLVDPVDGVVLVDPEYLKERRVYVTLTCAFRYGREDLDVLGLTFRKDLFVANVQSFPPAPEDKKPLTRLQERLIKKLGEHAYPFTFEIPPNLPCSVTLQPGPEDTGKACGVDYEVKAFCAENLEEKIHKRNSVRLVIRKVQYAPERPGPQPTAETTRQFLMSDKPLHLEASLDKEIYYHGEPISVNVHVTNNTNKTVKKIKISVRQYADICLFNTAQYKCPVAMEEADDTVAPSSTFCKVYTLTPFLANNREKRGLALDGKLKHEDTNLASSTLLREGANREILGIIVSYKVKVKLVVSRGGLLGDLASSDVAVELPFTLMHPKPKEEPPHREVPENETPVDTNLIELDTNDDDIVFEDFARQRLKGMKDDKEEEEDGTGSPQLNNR

These are yes or no findings as the source states them, for the method shown. Binding seen in cells or lysates may run through a third protein. Some results given as binding are weak or reduced against the parent protein; the word gives no strength.

In the assay the target is hNTS1-GFP10 (human) (UniProt P30989). In words: FRET or BRET; BRET2 in live CHO-K1 cells transiently transfected with hNTS1-GFP10 and RlucII-β-arrestin 1 or 2; stimulated with increasing concentrations of NT(8–13) or JMV2009 in HBSS with 20 mM HEPES; coelenterazine 400A 5 µM, 15 min at 37 °C.

For “RlucII-β-arrestin 1 (from UniProt P49407 1-418)”, the binding entry is on record as “binds”.

On to “RlucII-β-arrestin 2 (from UniProt P32121 1-409)”, for which the binding entry is reported as “binds”.
